## Results of single-concentration screens

Protein sequences, listed by entry. Tags and fused reporters are not part of them. Residues count along the entry.
UniProt I6X8D2, whole entry: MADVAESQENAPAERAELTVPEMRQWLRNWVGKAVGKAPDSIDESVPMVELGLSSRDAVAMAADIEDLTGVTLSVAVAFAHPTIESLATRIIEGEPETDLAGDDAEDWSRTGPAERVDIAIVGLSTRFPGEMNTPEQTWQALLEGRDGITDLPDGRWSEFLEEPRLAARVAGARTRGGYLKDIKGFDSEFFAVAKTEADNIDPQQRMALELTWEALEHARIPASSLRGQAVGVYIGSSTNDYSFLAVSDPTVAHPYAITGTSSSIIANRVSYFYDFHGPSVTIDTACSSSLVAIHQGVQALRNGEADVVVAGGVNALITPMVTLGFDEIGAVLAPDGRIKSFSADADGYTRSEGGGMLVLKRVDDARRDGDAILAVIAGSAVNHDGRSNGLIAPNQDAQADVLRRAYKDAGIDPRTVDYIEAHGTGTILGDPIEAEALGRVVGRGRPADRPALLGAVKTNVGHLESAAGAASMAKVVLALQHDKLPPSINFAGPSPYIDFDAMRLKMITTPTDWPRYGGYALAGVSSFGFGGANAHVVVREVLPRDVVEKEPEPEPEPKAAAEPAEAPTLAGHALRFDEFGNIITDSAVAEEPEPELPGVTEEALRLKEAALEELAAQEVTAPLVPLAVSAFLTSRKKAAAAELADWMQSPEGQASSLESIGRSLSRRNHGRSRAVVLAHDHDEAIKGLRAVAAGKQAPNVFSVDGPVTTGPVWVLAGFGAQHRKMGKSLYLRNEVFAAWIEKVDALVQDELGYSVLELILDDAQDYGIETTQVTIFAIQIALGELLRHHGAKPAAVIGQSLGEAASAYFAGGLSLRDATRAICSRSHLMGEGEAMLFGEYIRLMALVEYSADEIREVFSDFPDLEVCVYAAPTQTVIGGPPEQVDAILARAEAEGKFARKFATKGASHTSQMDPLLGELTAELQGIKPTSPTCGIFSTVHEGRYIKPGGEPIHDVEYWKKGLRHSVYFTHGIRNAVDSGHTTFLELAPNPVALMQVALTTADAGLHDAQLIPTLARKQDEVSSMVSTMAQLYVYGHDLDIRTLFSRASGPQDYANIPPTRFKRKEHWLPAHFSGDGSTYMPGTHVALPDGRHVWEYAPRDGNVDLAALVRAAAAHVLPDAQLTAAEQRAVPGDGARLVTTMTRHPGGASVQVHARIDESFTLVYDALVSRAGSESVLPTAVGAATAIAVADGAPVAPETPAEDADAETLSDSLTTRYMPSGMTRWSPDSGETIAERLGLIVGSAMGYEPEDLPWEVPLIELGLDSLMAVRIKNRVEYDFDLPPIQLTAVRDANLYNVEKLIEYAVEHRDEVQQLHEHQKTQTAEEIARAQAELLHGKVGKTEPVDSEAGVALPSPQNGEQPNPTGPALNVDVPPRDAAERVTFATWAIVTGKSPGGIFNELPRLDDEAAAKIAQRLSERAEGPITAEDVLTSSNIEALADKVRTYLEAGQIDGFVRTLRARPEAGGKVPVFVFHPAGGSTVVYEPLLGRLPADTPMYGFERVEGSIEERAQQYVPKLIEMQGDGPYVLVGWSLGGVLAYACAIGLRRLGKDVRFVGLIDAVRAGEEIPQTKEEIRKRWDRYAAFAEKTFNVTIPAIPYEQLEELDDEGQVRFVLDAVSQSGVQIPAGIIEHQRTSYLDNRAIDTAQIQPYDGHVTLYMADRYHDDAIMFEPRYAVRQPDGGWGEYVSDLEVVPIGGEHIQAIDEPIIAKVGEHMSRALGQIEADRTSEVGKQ
UniProt Q4DA54, 1-478: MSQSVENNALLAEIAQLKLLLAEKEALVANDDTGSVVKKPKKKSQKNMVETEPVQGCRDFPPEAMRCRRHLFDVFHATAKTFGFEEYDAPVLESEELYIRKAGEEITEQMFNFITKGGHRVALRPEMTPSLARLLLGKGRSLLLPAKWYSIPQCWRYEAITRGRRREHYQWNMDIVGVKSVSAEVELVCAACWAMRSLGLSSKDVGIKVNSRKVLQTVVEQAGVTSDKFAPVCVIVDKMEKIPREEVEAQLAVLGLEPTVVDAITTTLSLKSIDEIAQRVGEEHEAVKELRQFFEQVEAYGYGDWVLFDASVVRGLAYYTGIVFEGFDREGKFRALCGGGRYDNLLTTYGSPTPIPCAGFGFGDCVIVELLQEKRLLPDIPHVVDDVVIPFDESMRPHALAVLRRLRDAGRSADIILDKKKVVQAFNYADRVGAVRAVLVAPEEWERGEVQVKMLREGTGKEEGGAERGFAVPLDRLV
UniProt P9WPC5, whole entry: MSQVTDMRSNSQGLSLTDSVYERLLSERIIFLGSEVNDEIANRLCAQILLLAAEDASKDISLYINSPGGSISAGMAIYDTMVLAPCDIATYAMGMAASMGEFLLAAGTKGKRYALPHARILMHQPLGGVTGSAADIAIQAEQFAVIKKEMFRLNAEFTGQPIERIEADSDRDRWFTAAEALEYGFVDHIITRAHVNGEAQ
UniProt P9WPC3, whole entry partner: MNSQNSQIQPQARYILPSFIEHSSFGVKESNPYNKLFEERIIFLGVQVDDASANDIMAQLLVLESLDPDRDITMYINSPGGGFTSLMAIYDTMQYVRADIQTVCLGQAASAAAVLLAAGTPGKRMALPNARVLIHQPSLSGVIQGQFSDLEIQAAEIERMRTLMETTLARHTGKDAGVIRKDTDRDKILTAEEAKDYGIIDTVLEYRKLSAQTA
UniProt A4I591, 1-473: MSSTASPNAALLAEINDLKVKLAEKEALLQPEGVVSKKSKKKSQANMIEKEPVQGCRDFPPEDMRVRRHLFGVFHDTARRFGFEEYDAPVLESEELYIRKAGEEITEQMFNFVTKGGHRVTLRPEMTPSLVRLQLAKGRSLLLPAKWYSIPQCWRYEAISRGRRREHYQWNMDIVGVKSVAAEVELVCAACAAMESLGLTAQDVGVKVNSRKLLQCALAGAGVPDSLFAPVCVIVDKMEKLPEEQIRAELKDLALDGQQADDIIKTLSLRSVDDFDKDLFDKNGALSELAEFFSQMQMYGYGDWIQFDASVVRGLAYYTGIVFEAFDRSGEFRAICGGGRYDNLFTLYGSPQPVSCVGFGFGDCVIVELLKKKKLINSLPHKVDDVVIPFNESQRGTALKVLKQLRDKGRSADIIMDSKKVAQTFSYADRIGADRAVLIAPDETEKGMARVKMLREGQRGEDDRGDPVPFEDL

Pks13 thioesterase: 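Enzyme assay of the thioesterase domain of polyketide synthase 13; the read-out is not stated. Target: Polyketide synthase Pks13, Mycobacterium tuberculosis (UniProt I6X8D2). Concentration: 30 µM. The record gives no direction; the compounds picked for IC50 retests had high values, so higher reads as stronger inhibition. Of about 67,000 compounds tested this way, about 300 (0.46%) reached 50% or more in at least one test.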
TcHisRS: 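Histidine-tRNA ligase, Trypanosoma cruzi CL Brener (UniProt Q4DA54). Enzyme assay of histidyl-tRNA synthetase; the read-out is not stated. Compounds at 30 µM. The record gives no direction; compounds that gave an IC50 in retests scored well above the rest, so higher reads as stronger inhibition. Size under these conditions: about 69,000 compounds, about 31 of them at 50% or above in at least one test.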
ClpP1P2: 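ClpP1P2, Mycobacterium tuberculosis (UniProt P9WPC5 and UniProt P9WPC3). Protease assay of ClpP1P2, read by the AMC dye that it sets free. Compounds at 50 µM. Direction is inferred from only a few compounds that gave an IC50; most scored high, so higher reads as stronger inhibition. Most other retested compounds had strongly negative values. Of about 69,000 compounds tested this way, about 10 (0.015%) reached 50% or more in at least one test.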
Leishmania in macrophages: 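Cell assay of Leishmania donovani living inside macrophages; the read-out is not stated. Compounds at 30 µM. Direction is inferred from retests: higher values go with stronger inhibition. Of about 69,000 compounds tested this way, about 1,000 (1.5%) reached 50% or more in at least one test.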
LiHisRS: 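Enzyme assay of histidyl-tRNA synthetase; the read-out is not stated. Target: Histidine-tRNA ligase, Leishmania infantum (UniProt A4I591). Tested at 30 µM. The record gives no direction; compounds that gave an IC50 in retests scored well above the rest, so higher reads as stronger inhibition. The assay is labelled LdHisRS but filed under L. infantum. Size under these conditions: about 69,000 compounds, about 410 of them at 50% or above in at least one test.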

The filed quantity is “Percent Effect” (%).
How 0% and 100% were set is not recorded. Most values in the screen are low, and negative values occur.
This is an unselected part of the compounds tested.
A dash means the value is not listed here; it may have been measured.

| Compound | Pks13 thioesterase | TcHisRS | ClpP1P2 | Leishmania in macrophages | LiHisRS |
|---|---|---|---|---|---|
| `O=C(CCC1CCCO1)NS(=O)(=O)c1ccc(Cl)cc1` (stereo unspecified) | 3.083% | 6.015% | 13.71% | 24.16% | 19.05% |
| `O=C(O)C(F)(F)F.[H][C@]12C[C@@H](C(=O)N(C)C)CO[C@@]1([H])CCN(c1ncc(F)cn1)C2` | - | - | - | 1.877% | - |
| `O=C1CC(c2cccnc2)C2(CCN(C(=O)c3ccncc3)CC2)N1` (stereo unspecified) | -38.85% | 6.077% | 1.764% | -3.571% | 15.04% |
| `CSc1ccc2cc(CN(C)CCCN(C)C)c(=O)[nH]c2c1` | 6.225% | 12.43% | -16.46% | 0.5271% | 34.19% |
| `COC(=O)NCC(=O)N(C)Cc1csc(-c2cccs2)n1` | 2.284% | 7.071% | -9.557% | 12.3% | 8.197% |
| `NC(=O)C1CCN(CCc2ccc(NCc3ccoc3)cc2)CC1` | 15.29% | -2.02% | -0.8287% | -13.12% | -1.587% |
| `CCS(=O)(=O)N1CCC2(CC(=O)N(c3cncnc3)C2)C1` (stereo unspecified) | - | 6.863% | -9.262% | 17.97% | 22.86% |
| `Cn1c(C2CC2)nc2c1CCN(CCOc1cccc(F)c1)C2` | -20.38% | 13.26% | -34.24% | -3.56% | 26.79% |
| `O=C(c1ccoc1)N1CC[C@@H]2O[C@H](COCc3ccccn3)CC[C@@H]21` | -19.47% | 2.762% | -0.3609% | - | 7.519% |
| `OC1(CNCCSCc2ccccc2)CCCNC1` (stereo unspecified) | 10.78% | 4.598% | 9.599% | 35.21% | 1.613% |
| `Cc1ccc(-n2c(COCC(=O)O)nc3c(C)cccc32)nc1` | 39.09% | 3.409% | 0.7448% | 18.5% | 25% |
| `Cl.NCCCNS(=O)(=O)Cc1ccc(Br)cc1` | - | - | - | 18.08% | - |
| `CN(C)C(=O)c1cc(-c2ccc(S(C)(=O)=O)cc2)c2cnn(C)c2n1` | 14.8% | 1.775% | -5.503% | 2.335% | 1.379% |
| `COCCN1CCc2ccccc2NCCC1=O` | 0.1906% | -10.4% | 0.4223% | 9.624% | 0% |
| `Cn1cc(CN2CCn3c(CNC(=O)c4cccn4C)cnc3C2)cn1.O=C(O)C(F)(F)F` | - | - | - | -34.58% | - |
| `CCC1=N[C@@]2(CC[C@@H]3CN(Cc4ccc(C)cc4)C[C@@H]32)C(=O)N1C` | -11.89% | 7.407% | 9.847% | - | 10% |
| `CN1CC(C(=O)NCc2cccnc2OCC(F)(F)F)CC1=O` (stereo unspecified) | -31.89% | 4.433% | 7.216% | 25.25% | 16.88% |
| `Cc1cnc(CN2CCN(C(C)c3nc(C(C)C)no3)CC2)cn1` (stereo unspecified) | -13.51% | 8.621% | 3.413% | 11.1% | 16.67% |
| `CC(C)N1CCOC(Cc2nn3c(Cc4ccccc4)nnc3s2)C1` (stereo unspecified) | -19.6% | -1.212% | -14.77% | 1.045% | 7.792% |
| `Cc1noc(C[C@@H]2COC[C@H]3CN(C(=O)C4=CCCC4)C[C@@H]23)n1` | -31.18% | 3.681% | -3.737% | - | 17.09% |
| `CC1Oc2c(cccc2C(=O)N2CCCCCC2)NC1=O` (stereo unspecified) | -22.29% | 5.699% | -3.067% | -9.644% | 19.1% |
| `CCOc1cc2c(cc1CCC(=O)O)CCC2` | -12.07% | 4.39% | -12.39% | 28.84% | 15.25% |
| `CCNc1cc2c(nn1)CCN(C(=O)c1cc3cc(C)ccc3o1)C2` | -29.72% | 9.605% | -28.12% | 28.13% | 24.14% |
| `CCCn1nnnc1COC(=O)C1COc2ccc(Cl)cc2C1` (stereo unspecified) | -17.46% | -0.8696% | 4.092% | -4.057% | 18.33% |
| `CC(NCc1ccncc1)c1cc2c(cc1Br)OCCO2` (stereo unspecified) | -11.86% | 16.13% | 7.657% | 16.23% | 19.19% |
| `CCc1ocnc1C(=O)N1CCOC(CCCC(C)C)C1` (stereo unspecified) | 11.04% | -0.5181% | -9.979% | 14.48% | 4.301% |
| `Cc1cncc(CN2CC[C@@](O)(CNC(=O)c3c[nH]cn3)[C@H](O)C2)c1` | 2.098% | -14% | -7.192% | 23.16% | 2.685% |
| `CN(CC(=O)NC1CCOCC1)C1CCCN(c2cccnn2)C1` (stereo unspecified) | 0.8918% | 4.624% | -35.09% | 0.8715% | 9.821% |
| `CCOCC1CN(C(=O)c2cnoc2C)Cc2cn(C)nc21` (stereo unspecified) | -5.876% | -2.532% | -5.912% | - | 13.79% |
| `CC(C)c1ccc(C(=O)O)cc1S(=O)(=O)Nc1ccc(=O)n(C)c1` | 3.72% | 4.444% | -0.2279% | 2.188% | 84.62% |
| `c1ccc(CN2C[C@@H]3OCCN(c4ncccn4)[C@@H]3C2)nc1` | -24.1% | 3.825% | 6.153% | - | 9.489% |
| `CCCN(C(=O)CN1CCN(CCO)CC1)C1=CCCCC1` | -23.95% | 1.604% | -12.59% | 49.14% | 7.853% |
| `CCc1nc(C2CCCN2C(=O)c2ccoc2C)no1` (stereo unspecified) | -1.323% | 3.053% | -0.05059% | 17.46% | 0% |
| `CCC(O)CNc1nccc(-c2ccc(C)nc2C)n1` (stereo unspecified) | -33.22% | 7.772% | 9.569% | 0.4979% | 19.35% |
| `CC(C)(C(=O)NCCCc1nc2ccccc2[nH]1)n1cc(Cl)cn1` | -12.01% | 6.897% | 6.029% | 14.02% | 9.821% |
| `CN(C)CCO[C@H]1CN(C(=O)c2ccc[nH]2)[C@@H]2COC[C@H]12` | -21.21% | 10.74% | 4.988% | - | 16.36% |
| `CCn1cncc1CN(Cc1ccc(OC)cc1OC)CC1CCCO1.O=C(O)CC(O)(CC(=O)O)C(=O)O` (stereo unspecified) | - | - | - | 18.1% | - |
| `[H][C@@]12CS(=O)(=O)C[C@]1([H])N(C(=O)CCC(F)(F)F)CCN2Cc1[nH]cnc1C` | - | - | - | 33.6% | - |
| `O=C(c1cccc(Cl)c1)N1CCCn2c(CN3CCCCC3)nnc2C1` | -17.02% | 9.29% | 8.322% | - | 16.79% |

For reference, 3 entries once more:

| Compound | Pks13 thioesterase | TcHisRS | ClpP1P2 | Leishmania in macrophages | LiHisRS |
|---|---|---|---|---|---|
| `CCOCC1CN(C(=O)c2cnoc2C)Cc2cn(C)nc21` (stereo unspecified) | -5.876% | -2.532% | -5.912% | - | 13.79% |
| `CN1CC(C(=O)NCc2cccnc2OCC(F)(F)F)CC1=O` (stereo unspecified) | -31.89% | 4.433% | 7.216% | 25.25% | 16.88% |
| `CN(CC(=O)NC1CCOCC1)C1CCCN(c2cccnn2)C1` (stereo unspecified) | 0.8918% | 4.624% | -35.09% | 0.8715% | 9.821% |

Measurements from “University of Dundee, Small-Polar-MMV Screening Library” (2021), ChEMBL document CHEMBL3988442.